The target of experiment [1] is T1, ATP7B metal binding domains 1-3, spin-labeled (human) (UniProt P35670).
T1 sequence (chain, MTSL nitroxide spin label (R1) on C108, C113 and C305): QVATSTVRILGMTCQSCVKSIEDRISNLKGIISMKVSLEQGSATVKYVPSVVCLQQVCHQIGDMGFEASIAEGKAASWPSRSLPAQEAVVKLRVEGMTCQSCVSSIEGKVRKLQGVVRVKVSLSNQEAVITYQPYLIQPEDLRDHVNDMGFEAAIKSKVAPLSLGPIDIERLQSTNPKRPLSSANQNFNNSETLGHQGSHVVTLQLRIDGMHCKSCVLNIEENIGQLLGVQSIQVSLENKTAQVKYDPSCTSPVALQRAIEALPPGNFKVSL
Nature of the experiment: DEER (pulsed EPR distance measurement); Q-band, 50 ± 1.0 K; spin-labeled MBDs in the absence and presence of Atox1 or sl-Atox1; both purified.

Experiment [2] addresses T1, ATP7B metal binding domains 1-3, spin-labeled (human). Nature of the experiment: CW-EPR of spin-labeled proteins; X-band, room temperature (292 ± 5 K), in solution; Atox1 or sl-Atox1 added to spin-labeled MBDs at 1:1 (Atox1:MBD); with and without Cu(I); spin-labeled protein 0.01-0.03 mM; both purified.

These results are taken from PMC7432781, “An EPR Study on the Interaction between the Cu(I) Metal Binding Domains of ATP7B and the Atox1 Metallochaperone” (International Journal of Molecular Sciences, 2020).

No constants are given. Whether binding was seen depends on the method and setting. Some entries that bind do so weakly or less than the wild type.

B1: Atox1 metallochaperone, wild-type, non spin-labeled (natural protein, human)
chain: MPKHEFSVDMTCGGCAEAVSRVLNKLGGVKYDIDLPNKKVCIESEHSMDTLLATLKKTGKTVSYLGLE
notes: Atox1 copper metallochaperone, human, wild type
B1: the binding entry in experiment [1] and in experiment [2] was “binds” each time.

B2: Atox1 metallochaperone, spin-labeled at C41 (protein, UniProt O00244 1-68)
chain: B1 chain
modifications: MTSL nitroxide spin label (R1) on C41
For the molecule B2, the binding result in experiment [1] and in experiment [2] was “binds” in each case.
